Laboratory results reported in PMC3170336.
These are yes or no findings as the source states them, for the method shown. In cells and extracts the contact can be indirect. Binding calls can cover weak binding; strength is not graded here.

Target: CD99 short form (retrovirally expressed in CD99 negative Ramos cells)
Assay: co-IP; lysates of Ramos cells expressing CD99 short form or CD99 long form precipitated with anti-CD99 mAb; Western blot with anti-MHC class I, anti-MHC class II, anti-CD81, anti-NTAL mAbs; CD99 negative Ramos cells as control

| Binder | binding |
| --- | --- |
| tetraspanin CD81 (endogenous, Ramos cells) (protein, UniProt P60033 1-236) MGVEGCTKCIKYLLFVFNFVFWLAGGVILGVALWLRHDPQTTNLLYLELGDKPAPNTFYVGIYILIAVGAVMMFVGFLGCYGAIQESQCLLGTFFTCLVILFACEVAAGIWGFVNKDQIAKDVKQFYDQALQQAVVDDDANNAKAVVKTFHETLDCCGSSTLTALTTSVLKNNLCPSGSNIISNLFKEDCHQKIDDLFSGKLYLIGIAAIVVAVIMIFEMILSMVLCCGIRNSSVY | binds |
| NTAL (endogenous, Ramos cells) (protein, UniProt Q9GZY6 1-243) MSSGTELLWPGAALLVLLGVAASLCVRCSRPGAKRSEKIYQQRSLREDQQSFTGSRTYSLVGQAWPGPLADMAPTRKDKLLQFYPSLEDPASSRYQNFSKGSRHGSEEAYIDPIAMEYYNWGRFSKPPEDDDANSYENVLICKQKTTETGAQQEGIGGLCRGDLSLSLALKTGPTSGLCPSASPEEDEESEDYQNSASIHQWRESRKVMGQLQREASPGPVGSPDEEDGEPDYVNGEVAATEA | no binding |
